Drawing on the supplement of paper PMC9254222, this text covers Renilla luciferase signal for 29 molecules.

Molecules are shown by their SMILES. Whole data set: some 1,100 compounds, median “Renilla luciferase signal (cell health) relative to plate median” near 0.97, cut for the highest 2% near 1.6. Only a part is listed here, and it is no random draw.

The test has as its system HEK293T (UBE3A T485A transfected, BAR Wnt reporter). The test is described as follows: Renilla luciferase signal (cell health) relative to plate median (fold (linear ratio)); higher = higher Renilla signal. Particulars: 24 h. In a few lines:
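Chemicals were robotically dosed at 0.01–100 uM for 24 h onto HEK293T cells, starting four hours after transfection with a BAR firefly luciferase Wnt reporter, TK-Renilla and an expression plasmid. The cells had been plated at 4500 cells/well in DMEM with 10% FBS at 37°C and 5% CO2. Following a Dual-Glo luciferase readout, the firefly/Renilla ratio served as the Wnt activity measure and raw Renilla as the cell health measure, both median-centred on each plate. Each value is the mean of four biological replicates.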

Consider `CS(=O)(=O)c1ccc([C@@H](C[C@H]2CCC(=O)C2)C(=O)Nc2cnccn2)cc1Cl` [Piragliatin], for which the Renilla luciferase signal (concentration: 0.1 uM) is 0.825, the Renilla luciferase signal (concentration: 1 uM) was found to be 0.77, the Renilla luciferase signal (concentration: 10 uM) was found to be 0.899 and the Renilla luciferase signal (concentration: 100 uM) was determined as 1.01.

`CCSC(=O)N(CC(C)C)CC(C)C` [Butylate]: the Renilla luciferase signal by setting is: (concentration: 0.01 uM) 1.09; (concentration: 0.1 uM) 1.15; (concentration: 1 uM) 1.07; (concentration: 10 uM) 1.09; (concentration: 100 uM) 1.59.

Take `Oc1ccccc1` [Phenol]: the Renilla luciferase signal (concentration: 0.1 uM) came out at 0.976, the Renilla luciferase signal (concentration: 1 uM) was determined as 0.933, the Renilla luciferase signal (concentration: 10 uM) is 0.959 and the Renilla luciferase signal (concentration: 100 uM) amounted to 1.02.

Take `CCC(=C(c1ccc(O)cc1)c1ccc(OCCN(C)C)cc1)c1ccccc1` [4-Hydroxytamoxifen]: the Renilla luciferase signal runs as follows: (concentration: 0.1 uM) 0.751; (concentration: 1 uM) 0.861; (concentration: 10 uM) 0.667; (concentration: 100 uM) 0.0215.

Take `CCCCCCCCCCCC(=O)OC` [Methyl dodecanoate]: the Renilla luciferase signal reads like this: (concentration: 0.1 uM) 0.884; (concentration: 1 uM) 0.792; (concentration: 10 uM) 0.85; (concentration: 100 uM) 0.89.

Regarding `Cc1cc(=O)[nH]c(=S)[nH]1` [6-Methyl-2-thiouracil], the Renilla luciferase signal is, setting by setting: (concentration: 0.1 uM) 1.04; (concentration: 1 uM) 1.03; (concentration: 10 uM) 1.01; (concentration: 100 uM) 1.37.

Regarding `CCCCOCCOCCO` [2-(2-Butoxyethoxy)ethanol], the Renilla luciferase signal by setting is: (concentration: 0.1 uM) 0.85; (concentration: 1 uM) 0.895; (concentration: 10 uM) 0.705; (concentration: 100 uM) 0.863.

With `CO[C@H]1/C=C/O[C@@]2(C)Oc3c(C)c(O)c4c(O)c(c(/C=N/N5CCN(C)CC5)c(O)c4c3C2=O)NC(=O)/C(C)=C\C=C\[C@H](C)[C@H](O)[C@@H](C)[C@@H](O)[C@@H](C)[C@H](OC(C)=O)[C@@H]1C` [Rifampicin], the Renilla luciferase signal by setting is: (concentration: 0.1 uM) 0.803; (concentration: 1 uM) 0.857; (concentration: 10 uM) 0.732; (concentration: 100 uM) 0.214.

As to `O=c1c(O)c(-c2ccc(O)c(O)c2)oc2cc(O)cc(O)c12` [Quercetin], the Renilla luciferase signal by setting is: (concentration: 0.1 uM) 0.645; (concentration: 1 uM) 0.689; (concentration: 10 uM) 0.465; (concentration: 100 uM) 0.0436.

With `CN(C)C(=O)C1(N2CCCCC2)CCN(CC[C@@]2(c3ccc(Cl)c(Cl)c3)CN(C(=O)c3ccccc3)CCO2)CC1`, the Renilla luciferase signal is 0.903 (concentration: 0.1 uM), 0.888 (concentration: 1 uM), 0.664 (concentration: 10 uM) and 0.0169 (concentration: 100 uM).

As for `CCC(C)c1ccccc1O` (configuration not stated) [2-(Butan-2-yl)phenol], the Renilla luciferase signal is, setting by setting: (concentration: 0.1 uM) 1.06; (concentration: 1 uM) 1.1; (concentration: 10 uM) 1.24; (concentration: 100 uM) 1.36.

For `CCCCC=O` [Pentanal], the Renilla luciferase signal was found to be 0.858 (concentration: 0.1 uM), 0.897 (concentration: 1 uM), 0.989 (concentration: 10 uM) and 1.24 (concentration: 100 uM).

As to `COc1cc(C(=O)NC2CCN(C)CC2)ccc1Nc1ncc2c(n1)N(C1CCCC1)CC(F)(F)C(=O)N2C`, the Renilla luciferase signal came out at 0.0423 (concentration: 0.1 uM), 0.044 (concentration: 1 uM), 0.026 (concentration: 10 uM) and 0.0253 (concentration: 100 uM).

Consider `CC1(C)NC(=O)N(c2ccc([N+](=O)[O-])c(C(F)(F)F)c2)C1=O` [Nilutamide], for which the Renilla luciferase signal by setting is: (concentration: 0.1 uM) 1.05; (concentration: 1 uM) 1.09; (concentration: 10 uM) 0.995; (concentration: 100 uM) 0.268.

Consider `CN1CCC(c2c(O)cc(O)c3c(=O)cc(-c4ccccc4Cl)oc23)C(O)C1` (configuration not stated) [Flavopiridol], for which the Renilla luciferase signal (concentration: 0.01 uM) was 1.07; the Renilla luciferase signal (concentration: 0.1 uM) was determined as 0.674; the Renilla luciferase signal (concentration: 1 uM) was 0.0101; the Renilla luciferase signal (concentration: 10 uM) was 0.00863; the Renilla luciferase signal (concentration: 100 uM) is 0.00357.

Regarding `CC(C)c1cccc(C(C)C)c1N1C(=O)c2ccc(O)cc2C1=O`, the Renilla luciferase signal is 0.762 (concentration: 0.1 uM), 0.828 (concentration: 1 uM), 0.243 (concentration: 10 uM) and 0.0419 (concentration: 100 uM).

With `CC(=O)OC[C@H]1O[C@@](COC(C)=O)(O[C@H]2O[C@H](COC(C)=O)[C@@H](OC(C)=O)[C@H](OC(C)=O)[C@H]2OC(C)=O)[C@@H](OC(C)=O)[C@@H]1OC(C)=O` [Sucrose octaacetate], the Renilla luciferase signal was 0.878 (concentration: 0.1 uM), 0.93 (concentration: 1 uM), 1.01 (concentration: 10 uM) and 1.18 (concentration: 100 uM).

For the molecule `O=C(O)c1ccccc1C(c1ccc(O)cc1)c1ccc(O)cc1` [Phenolphthalin], the Renilla luciferase signal runs as follows: (concentration: 0.1 uM) 1.11; (concentration: 1 uM) 1.1; (concentration: 10 uM) 0.958; (concentration: 100 uM) 0.886.

Take `COc1cc2c3c(n(CCCn4ccnc4)c(=O)c2cc1OC)-c1cc2c(cc1C3=O)OCO2.Cl`: the Renilla luciferase signal is, setting by setting: (concentration: 0.01 uM) 0.662; (concentration: 0.1 uM) 0.21; (concentration: 1 uM) 0.0894; (concentration: 10 uM) 0.154; (concentration: 100 uM) 0.171.

Take `CC(C)c1cccc(C(C)C)c1NC(=O)[N-]S(=O)(=O)c1cc(C(C)(C)O)co1.[Na+]`: the Renilla luciferase signal turned out to be 0.547 (concentration: 0.1 uM), 0.64 (concentration: 1 uM), 0.582 (concentration: 10 uM) and 0.654 (concentration: 100 uM).

For the molecule `COC(=O)C12CCC(C)(C)CC1C1C(=O)C=C3C4(C)C=C(C#N)C(=O)C(C)(C)C4CCC3(C)C1(C)CC2` (configuration not stated) [Bardoxalone-methyl], the Renilla luciferase signal is, setting by setting: (concentration: 0.01 uM) 0.716; (concentration: 0.1 uM) 0.552; (concentration: 1 uM) 0.434; (concentration: 10 uM) 0.00785; (concentration: 100 uM) 0.0029.

As for `CN1CCN(c2ccccc2/C=C2\SCCN(c3ccc(Cl)c(Cl)c3)C2=O)CC1` [Elzasonan], the Renilla luciferase signal (concentration: 0.1 uM) is 1.07, the Renilla luciferase signal (concentration: 1 uM) stood at 1.11, the Renilla luciferase signal (concentration: 10 uM) was determined as 0.855 and the Renilla luciferase signal (concentration: 100 uM) came to 0.0286.

With `CC(C)c1nnc2ccc(-c3ocnc3-c3cc(F)ccc3F)cn12`, the Renilla luciferase signal runs as follows: (concentration: 0.1 uM) 0.894; (concentration: 1 uM) 0.835; (concentration: 10 uM) 0.923; (concentration: 100 uM) 0.313.

For the molecule `[Cl-].c1ccc(C[n+]2cccc3ccccc32)cc1` [1-Benzylquinolinium chloride], the Renilla luciferase signal runs as follows: (concentration: 0.1 uM) 0.982; (concentration: 1 uM) 0.98; (concentration: 10 uM) 0.857; (concentration: 100 uM) 0.0421.

Regarding `Nc1ncn([C@@H]2O[C@H](CO)[C@@H](O)[C@H]2O)c(=O)n1` [5-azacytidine], the Renilla luciferase signal by setting is: (concentration: 0.01 uM) 0.936; (concentration: 0.1 uM) 0.572; (concentration: 1 uM) 0.391; (concentration: 10 uM) 0.138; (concentration: 100 uM) 0.596.

Regarding `Cc1cnc(-c2cnc(NCCNc3ccc(C#N)cn3)nc2-c2ccc(Cl)cc2Cl)[nH]1`, the Renilla luciferase signal reads like this: (concentration: 0.01 uM) 1.12; (concentration: 0.1 uM) 1.02; (concentration: 1 uM) 0.859; (concentration: 10 uM) 0.675; (concentration: 100 uM) 0.0106.

Take `CCOc1ccc2[nH]cc(C(=O)NCc3ccccc3)c(=O)c2n1`: the Renilla luciferase signal is, setting by setting: (concentration: 0.1 uM) 1.05; (concentration: 1 uM) 1.12; (concentration: 10 uM) 1.22; (concentration: 100 uM) 0.85.

Consider `O=c1c(-c2ccc(O)cc2)coc2cc(O)ccc12` [Daidzein], for which the Renilla luciferase signal came to 1.02 (concentration: 0.1 uM), 1.11 (concentration: 1 uM), 1.03 (concentration: 10 uM) and 0.523 (concentration: 100 uM).

In the case of `Cc1c(C(=O)O)c(O)cc2c1C(=O)c1c(O)c([C@@H]3O[C@H](CO)[C@@H](O)[C@H](O)[C@H]3O)c(O)c(O)c1C2=O` [Carminic acid], the Renilla luciferase signal by setting is: (concentration: 0.1 uM) 1.06; (concentration: 1 uM) 1.01; (concentration: 10 uM) 0.37; (concentration: 100 uM) 0.0264.
